PubChem BioAssay AID1259254 | NCATS | 2017
Purpose: 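Finding genes that stop cells copying their DNA twice in one cycle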 (primary screen). Cell system: human HCT116 colorectal cancer cells. Knock-down reagent: single siRNA against human genes. Duration: 3 days. Read-out: 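Nuclei stained with Hoechst and imaged; cell-cycle phase assigned by DNA content; G2 share scaled per plate, non-targeting siRNA 0%, GMNN siRNA 100%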. Direction: G2 robust z-score: higher = more G2 cells, more excess DNA replication. Active means: 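Active siRNAs have a G2 robust z of 5 or more median absolute deviations over the median, which in these data means about 38% or higher of GMNN control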.
The whole screen tested about 59,000 reagents; this is an unselected part. About 1,550 of all reagents (2.6%) count as active. 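G2 share is only a proxy for re-replication; each gene was hit by three separate siRNAs, and active genes were retested.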 Reagents against one gene are numbered here. Not all columns of the deposit are shown. Reagent sequences are not shown. Not stated in the record: the amount of reagent.

POU3F2 (POU class 3 homeobox 2) #1 gave G2 robust z-score 0.598; inactive. POU3F2 (POU class 3 homeobox 2) #2 showed G2 robust z-score 0.596; inactive. Depletion of POU3F2 (POU class 3 homeobox 2) #3 gave: G2 robust z-score 0.608; inactive. Knock-down of THAP8 (THAP domain containing 8) #1 resulted in: G2 robust z-score 4.27; inactive. With knock-down of THAP8 (THAP domain containing 8) #2, the record shows G2 robust z-score -0.927; inactive. THAP8 (THAP domain containing 8) #3 showed G2 robust z-score -0.527; inactive.

For CHRM1 (cholinergic receptor muscarinic 1) #1, the entry reads G2 robust z-score 0.714; inactive. CHRM1 (cholinergic receptor muscarinic 1) #2 scored G2 robust z-score -1.16; inactive. Depletion of CHRM1 (cholinergic receptor muscarinic 1) #3 gave: G2 robust z-score 0.554; inactive. LOC653698 #1 scored G2 robust z-score 0.529; inactive. Depletion of LOC653698 #2 came out at: G2 robust z-score 0.00158; inactive. Depletion of LOC653698 #3 came out at: G2 robust z-score -0.116; inactive.

DPAGT1 (dolichyl-phosphate N-acetylglucosaminephosphotransferase 1) #1 gave G2 robust z-score -0.437; inactive. For DPAGT1 (dolichyl-phosphate N-acetylglucosaminephosphotransferase 1) #2, the entry reads G2 robust z-score -1.35; inactive. For DPAGT1 (dolichyl-phosphate N-acetylglucosaminephosphotransferase 1) #3 the deposit lists G2 robust z-score -0.571; inactive. Depletion of RD3L (RD3 like) #1 came out at: G2 robust z-score 0.487; inactive. Silencing of RD3L (RD3 like) #2 came out at: G2 robust z-score 1.97; inactive. With knock-down of RD3L (RD3 like) #3, the record shows G2 robust z-score -0.243; inactive.

Depletion of AUTS2 (activator of transcription and developmental regulator AUTS2) #1 resulted in: G2 robust z-score -0.541; inactive. For AUTS2 (activator of transcription and developmental regulator AUTS2) #2 the deposit lists G2 robust z-score -0.442; inactive. With knock-down of AUTS2 (activator of transcription and developmental regulator AUTS2) #3, the screen gave G2 robust z-score -0.247; inactive. FGFBP3 (fibroblast growth factor binding protein 3) #1 scored G2 robust z-score -0.875; inactive. FGFBP3 (fibroblast growth factor binding protein 3) #2 gave G2 robust z-score -0.637; inactive. Silencing of FGFBP3 (fibroblast growth factor binding protein 3) #3 resulted in: G2 robust z-score 1.81; inactive.

2 of these entries, reformatted:
{"Gene":"POU3F2 (POU class 3 homeobox 2)","reagent no.":2,"G2 robust z-score":0.596,"Outcome":"inactive"}
{"Gene":"POU3F2 (POU class 3 homeobox 2)","reagent no.":3,"G2 robust z-score":0.608,"Outcome":"inactive"}
